Read-outs that look alike come from different tables or passages of the source. These are yes or no findings as the source states them, for the method shown. In cells and extracts the contact can be indirect. A yes stands for co-enrichment or nearness to the bait. Other partners may have been found. For some assays here: No binding means not detected with the bait. Blank lines part the entries; values can stand above or below the molecule they belong to.
How the values were obtained:
Assay in all cases: affinity purification with mass spectrometry; 0.5 mg precleared cell lysate incubated overnight at 4 °C with anti-p73 antibody (ER-15), complexes captured on preblocked Protein G Sepharose beads 1.5 h at 4 °C, washed, eluted at 95 °C for 10 min; LC-MS/MS (settings in ref. 5)
DNp73β (ΔEx2/3p73β) [1] = target: DNp73β (ΔEx2/3p73β) (UniProt O15350)
TAp73α = target: T1, TAp73α (UniProt O15350)
T1 sequence: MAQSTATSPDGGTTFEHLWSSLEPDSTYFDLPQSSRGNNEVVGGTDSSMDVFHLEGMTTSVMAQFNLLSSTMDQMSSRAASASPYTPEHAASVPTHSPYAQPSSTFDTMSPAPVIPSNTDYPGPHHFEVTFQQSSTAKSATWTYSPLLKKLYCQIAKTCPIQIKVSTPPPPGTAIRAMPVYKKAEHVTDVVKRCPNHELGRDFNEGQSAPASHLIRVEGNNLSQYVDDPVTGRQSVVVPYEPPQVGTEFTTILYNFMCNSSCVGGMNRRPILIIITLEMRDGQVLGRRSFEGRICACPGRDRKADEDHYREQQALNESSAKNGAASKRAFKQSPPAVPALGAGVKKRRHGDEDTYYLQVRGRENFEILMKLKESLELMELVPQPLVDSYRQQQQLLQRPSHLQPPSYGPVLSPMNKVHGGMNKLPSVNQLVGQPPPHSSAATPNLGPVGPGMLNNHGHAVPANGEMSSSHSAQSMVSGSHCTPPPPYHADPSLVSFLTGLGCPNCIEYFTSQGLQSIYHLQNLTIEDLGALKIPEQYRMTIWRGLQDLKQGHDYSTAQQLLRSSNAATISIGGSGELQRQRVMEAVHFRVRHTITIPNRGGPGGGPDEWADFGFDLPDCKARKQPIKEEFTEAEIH

Amino acid sequences for entries named in this document (tags omitted).
UniProt Q8WYP5: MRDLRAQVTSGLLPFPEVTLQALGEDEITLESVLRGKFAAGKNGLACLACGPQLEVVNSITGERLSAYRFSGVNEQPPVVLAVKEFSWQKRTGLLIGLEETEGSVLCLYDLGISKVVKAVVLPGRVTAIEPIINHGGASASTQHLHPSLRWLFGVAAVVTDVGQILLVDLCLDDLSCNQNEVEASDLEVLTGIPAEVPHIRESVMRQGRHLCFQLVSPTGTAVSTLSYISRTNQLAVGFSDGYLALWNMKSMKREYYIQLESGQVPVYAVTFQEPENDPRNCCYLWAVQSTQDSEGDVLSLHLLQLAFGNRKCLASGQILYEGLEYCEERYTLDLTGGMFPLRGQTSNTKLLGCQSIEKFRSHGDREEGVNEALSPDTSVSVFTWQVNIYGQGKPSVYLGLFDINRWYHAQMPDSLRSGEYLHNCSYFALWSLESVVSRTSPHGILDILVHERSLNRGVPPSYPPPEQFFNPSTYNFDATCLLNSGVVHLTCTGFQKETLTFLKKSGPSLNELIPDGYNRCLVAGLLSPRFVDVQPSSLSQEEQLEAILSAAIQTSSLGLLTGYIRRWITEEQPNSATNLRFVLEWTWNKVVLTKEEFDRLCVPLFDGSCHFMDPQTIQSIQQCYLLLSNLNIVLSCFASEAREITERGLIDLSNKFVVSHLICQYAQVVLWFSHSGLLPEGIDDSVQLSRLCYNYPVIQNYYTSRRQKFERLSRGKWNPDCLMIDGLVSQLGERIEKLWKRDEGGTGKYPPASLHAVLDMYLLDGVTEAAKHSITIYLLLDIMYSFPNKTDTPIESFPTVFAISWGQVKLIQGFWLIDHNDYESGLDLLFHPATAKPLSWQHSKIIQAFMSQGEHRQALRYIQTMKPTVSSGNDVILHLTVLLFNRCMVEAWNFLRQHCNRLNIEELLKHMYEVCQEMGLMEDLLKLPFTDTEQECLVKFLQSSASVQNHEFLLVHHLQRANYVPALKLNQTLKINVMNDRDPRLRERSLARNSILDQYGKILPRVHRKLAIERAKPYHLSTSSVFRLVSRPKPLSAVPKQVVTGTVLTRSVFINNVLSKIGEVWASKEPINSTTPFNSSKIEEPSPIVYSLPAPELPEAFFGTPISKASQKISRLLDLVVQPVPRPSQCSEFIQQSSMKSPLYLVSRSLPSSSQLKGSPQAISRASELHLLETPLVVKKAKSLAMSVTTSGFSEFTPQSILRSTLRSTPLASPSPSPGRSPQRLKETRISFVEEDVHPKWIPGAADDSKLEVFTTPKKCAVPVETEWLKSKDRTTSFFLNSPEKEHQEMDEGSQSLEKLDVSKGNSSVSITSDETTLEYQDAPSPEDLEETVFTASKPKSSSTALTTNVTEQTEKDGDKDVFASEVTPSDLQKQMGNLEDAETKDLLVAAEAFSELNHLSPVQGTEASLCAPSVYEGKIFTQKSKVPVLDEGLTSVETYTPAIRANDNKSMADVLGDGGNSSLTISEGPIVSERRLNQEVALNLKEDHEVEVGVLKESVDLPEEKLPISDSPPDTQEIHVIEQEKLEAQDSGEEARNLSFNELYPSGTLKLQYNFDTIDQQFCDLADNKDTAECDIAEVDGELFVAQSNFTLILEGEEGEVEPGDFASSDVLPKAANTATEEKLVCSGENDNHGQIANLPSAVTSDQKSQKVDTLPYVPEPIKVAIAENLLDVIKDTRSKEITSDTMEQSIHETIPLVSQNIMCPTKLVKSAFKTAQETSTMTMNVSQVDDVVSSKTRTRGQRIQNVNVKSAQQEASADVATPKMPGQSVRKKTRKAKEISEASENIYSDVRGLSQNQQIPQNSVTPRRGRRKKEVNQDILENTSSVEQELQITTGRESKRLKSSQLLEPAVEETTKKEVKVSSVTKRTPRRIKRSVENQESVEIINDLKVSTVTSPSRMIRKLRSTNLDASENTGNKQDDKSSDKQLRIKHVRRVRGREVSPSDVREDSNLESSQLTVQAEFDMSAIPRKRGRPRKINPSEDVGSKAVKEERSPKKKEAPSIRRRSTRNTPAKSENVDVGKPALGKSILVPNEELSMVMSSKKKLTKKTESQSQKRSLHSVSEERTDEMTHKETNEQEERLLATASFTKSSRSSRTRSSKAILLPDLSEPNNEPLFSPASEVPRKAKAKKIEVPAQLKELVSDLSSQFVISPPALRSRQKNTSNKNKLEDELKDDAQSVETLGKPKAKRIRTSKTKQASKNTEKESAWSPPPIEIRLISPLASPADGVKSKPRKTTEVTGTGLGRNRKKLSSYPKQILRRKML
UniProt Q92769: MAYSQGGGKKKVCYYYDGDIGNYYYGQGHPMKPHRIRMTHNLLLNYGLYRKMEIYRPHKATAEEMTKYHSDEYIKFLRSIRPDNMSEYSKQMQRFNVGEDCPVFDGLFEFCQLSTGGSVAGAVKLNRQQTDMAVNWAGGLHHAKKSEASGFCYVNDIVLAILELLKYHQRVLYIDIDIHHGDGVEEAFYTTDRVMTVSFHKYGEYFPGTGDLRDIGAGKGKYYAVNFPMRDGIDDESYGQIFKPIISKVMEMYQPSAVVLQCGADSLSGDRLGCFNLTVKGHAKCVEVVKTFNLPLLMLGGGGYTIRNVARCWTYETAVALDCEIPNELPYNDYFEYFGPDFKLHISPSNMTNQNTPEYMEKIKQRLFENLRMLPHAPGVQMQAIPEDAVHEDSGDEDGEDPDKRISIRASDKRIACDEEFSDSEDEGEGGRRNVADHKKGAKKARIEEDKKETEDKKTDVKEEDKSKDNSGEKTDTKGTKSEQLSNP

DNp73β (ΔEx2/3p73β) [2] = target: DNp73β (ΔEx2/3p73β) (UniProt O15350); remark: listed apart in the source

Molecule: AHCTF1 (from UniProt Q8WYP5 1-2266)
binding (DNp73β (ΔEx2/3p73β) [1]): binds

B2: PATZ1 (protein, UniProt Q9HBE1 1-687)
chain: MERVNDASCGPSGCYTYQVSRHSTEMLHNLNQQRKNGGRFCDVLLRVGDESFPAHRAVLAACSEYFESVFSAQLGDGGAADGGPADVGGATAAPGGGAGGSRELEMHTISSKVFGDILDFAYTSRIVVRLESFPELMTAAKFLLMRSVIEICQEVIKQSNVQILVPPARADIMLFRPPGTSDLGFPLDMTNGAALAANSNGIAGSMQPEEEAARAAGAAIAGQASLPVLPGVDRLPMVAGPLSPQLLTSPFPSVASSAPPLTGKRGRGRPRKANLLDSMFGSPGGLREAGILPCGLCGKVFTDANRLRQHEAQHGVTSLQLGYIDLPPPRLGENGLPISEDPDGPRKRSRTRKQVACEICGKIFRDVYHLNRHKLSHSGEKPYSCPVCGLRFKRKDRMSYHVRSHDGSVGKPYICQSCGKGFSRPDHLNGHIKQVHTSERPHKCQTCNASFATRDRLRSHLACHEDKVPCQVCGKYLRAAYMADHLKKHSEGPSNFCSICNRGFSSASYLKVHVKTHHGVPLPQVSRHQEPILNGGAAFHCARTYGNKEGQKCSHQDPIESSDSYGDLSDASDLKTPEKQSANGSFSCDMAVPKNKMESDGEKKYPCPECGSFFRSKSYLNKHIQKVHVRALGGPLGDLGPALGSPFSPQQNMSLLESFGFQIVQSAFASSLVDPEVDQQPMGPEGK
binding (DNp73β (ΔEx2/3p73β) [2]): binds

More lines, now with the values ahead:

binding (TAp73α): binds | binding (DNp73β (ΔEx2/3p73β) [1]): no binding
Molecule: HDAC2 (from UniProt Q92769 1-488)

binding (DNp73β (ΔEx2/3p73β) [2]): binds
B1: HMGB3 (protein, UniProt O15347 1-200)
chain: MAKGDPKKPKGKMSAYAFFVQTCREEHKKKNPEVPVNFAEFSKKCSERWKTMSGKEKSKFDEMAKADKVRYDREMKDYGPAKGGKKKKDPNAPKRPPSGFFLFCSEFRPKIKSTNPGISIGDVAKKLGEMWNNLNDSEKQPYITKAAKLKEKYEKDVADYKSKGKFDGAKGPAKVARKKVEEEDEEEEEEEEEEEEEEDE
